# Measured values as given in paper PMC7809260 (Scientific Reports, 2021).
# Read-outs that look alike come from different tables or passages of the source.
# Test system: JumpIn-DAT cells
# Details: variable slope model
compound,measurement,setting,value
"Cl.NCCc1ccc(O)c(O)c1 [Dopamine, dopamine hydrochloride]",slope ± SEM (pseudo-Hill slope of dopamine concentration-effect curve),JumpIn-DAT +dox + 10 µM GBR12909,0.8 ± 0.1
same,slope ± SEM (pseudo-Hill slope of dopamine concentration-effect curve),JumpIn-DAT +dox + 10 µM cocaine,0.7 ± 0.1
same,slope ± SEM (pseudo-Hill slope of dopamine concentration-effect curve),JumpIn-DAT –dox,0.8 ± 0.1
